Laboratory results as given in PubChem BioAssay AID651640 (Broad Institute, 2012).
Where “and” joins values, the source holds several entries; their conditions need not be identical. Equal entries are not always repeated. Hit rate of the full screen: of about 350,000 compounds, about 6,000 (1.7%) were called active. The inconclusive results got no clear call from the source; some entries with a clear call stand among them for comparison. No stated cut-off is given here; in the data, active means CPE inhibition above about 20% (passing the limit was not always enough); inconclusive means no clear call, values can overlap the other calls; tested in BHK-21 cells. More than one record can exist for a structure, and the calls need not agree.

experiment: protection of cells from dengue 2 killing – plate reader, single concentration, primary screen (AID 651640); conditions: DENV2-infected cells, cytopathic effect rescue, at 9.99 µM, stronger effect = higher value;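 further: 0% = median of neutral control wells and 100% = median of positive control wells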

Row | Compound | CPE inhibition
1 | CNC(=O)C1(C)C=CCN1C(=O)c1ccccc1 (stereo unspecified) | inconclusive: 25.3%
2 | C[C@@H]1CN([C@@H](C)CO)C(=O)Cc2cc(NS(=O)(=O)c3ccccc3)ccc2O[C@H]1CN(C)C(=O)Nc1ccc(F)cc1 | active: 36.3%
3 | O=C(NC1CCCCC1)C1c2ccccc2OCC(=O)N1CCc1c[nH]c2ccccc12 (stereo unspecified) | inconclusive: 27.4%
4 | OCCN1CCN(CCO)C1=S | inconclusive: 32.8%
5 | C1=CCN(c2nc(N3CCOCC3)nc(N3CCCc4ccccc43)n2)CC1 | inactive: 1.45%
6 | CC(=NOC(=O)C1CCCCC1)c1nccs1 | inconclusive: 22.1%
7 | O=c1c2c(-c3ccccc3)csc2ncn1/N=C/c1cccc([N+](=O)[O-])c1O | inactive: -3.21%
8 | CN1CCN(C(=O)C[C@@H]2CC[C@H]3[C@H](COc4ccc(NC(=O)C5CCC5)cc4C(=O)N3C)O2)CC1 | inactive: 6.5%
9 | CN1CCCCN2[C@H](C1)[C@@H](c1ccc(-c3ccccc3)cc1)[C@@H]2CO | inconclusive: 23.1%
10 | COc1ccc(CN2CCN(Cc3cccc(F)c3)CC2)cc1OC | inconclusive: 23.2%
11 | COc1ccc(NC(=O)N(C)C[C@@H]2OCCCC[C@@H](C)Oc3ccc(NS(=O)(=O)c4ccc(OC)cc4)cc3C(=O)N([C@H](C)CO)C[C@@H]2C)cc1 | inconclusive: 21.7%
12 | CC1CCN(S(=O)(=O)N2CCC(C(=O)N3CCC(N(C)CC4CCCO4)CC3)CC2)CC1 (stereo unspecified) | inconclusive: 55.8%
13 | C[C@H](CO)N1C[C@H](C)[C@H](CN(C)C(=O)Nc2ccccc2)Oc2c(NC(=O)Nc3cccc4ccccc34)cccc2C1=O | inactive: -3.72%
14 | CCOC(=O)C1=C(COC(=O)Cc2ccccc2[N+](=O)[O-])NC(=O)NC1C (stereo unspecified) | active: 38.1%
15 | C[C@H]1CN([C@@H](C)CO)S(=O)(=O)c2ccc(C#Cc3ccccn3)cc2O[C@H]1CN(C)Cc1ccc(F)cc1 | inconclusive: 27.9%
16 | O=C(NCc1nnc(SCC(=O)N2CCCCC2)o1)c1c(F)cccc1Cl | inconclusive: 21.1%
17 | Cc1cc(Oc2cccnc2)ccc1NC(=O)Cc1cn(C)c2ccccc12 | inactive: -7.67%
18 | O=C(NCC1CCCCC1)[C@H]1[C@H](CO)[C@H]2Cn3c(cccc3=O)[C@@H]1N2CCc1ccccc1 | active: 109%
19 | C[C@@H]1CCCCO[C@@H](CN(C)C)[C@H](C)CN([C@@H](C)CO)C(=O)c2cc(NS(=O)(=O)c3cn(C)cn3)ccc2O1 | inactive: -6.25%
20 | CN1CCC(=NNC(=O)CN(c2ccc(Oc3ccccc3)cc2)S(C)(=O)=O)CC1 | inactive: 9.93%
21 | CC(C)(C(=O)N1CCC1(C)C(=O)Nc1ccccc1Br)c1ccccc1 (stereo unspecified) | active: 24.7%
22 | CCOc1ccc(CCNC(=O)c2sc3nc4n(c(=O)c3c2C)CCC4)cc1OCC | inconclusive: 62.1%
23 | CCOc1ccc(NC(=S)N(CCc2c(C)[nH]c3ccc(C)cc23)Cc2ccncc2)cc1 | inconclusive: 43.8%

3 compounds from above, arranged by heavy-atom count, falling.
Row | Compound | CPE inhibition
11 | COc1ccc(NC(=O)N(C)C[C@@H]2OCCCC[C@@H](C)Oc3ccc(NS(=O)(=O)c4ccc(OC)cc4)cc3C(=O)N([C@H](C)CO)C[C@@H]2C)cc1 | inconclusive: 21.7%
8 | CN1CCN(C(=O)C[C@@H]2CC[C@H]3[C@H](COc4ccc(NC(=O)C5CCC5)cc4C(=O)N3C)O2)CC1 | inactive: 6.5%
9 | CN1CCCCN2[C@H](C1)[C@@H](c1ccc(-c3ccccc3)cc1)[C@@H]2CO | inconclusive: 23.1%

Next part.

Row | Compound | CPE inhibition
24 | CC1(C(=O)NS(=O)(=O)c2ccc(Cl)cc2)CCN1C(=O)c1ccco1 (stereo unspecified) | inconclusive: 24.9%
25 | CCOC(=O)c1c(C)[nH]c(C(=O)OCC(=O)c2ccc(OC)cc2OC)c1C | inconclusive: 30%
26 | COc1ccc(NC(=O)c2nc[nH]c2C(=O)N[C@@H](CC(C)C)C(=O)OC(C)(C)C)cc1 | inconclusive: 84.2%
27 | COc1ccc(C2(O)CN(c3ccc(C)cc3)C3=[N+]2CCCC3)cc1 (stereo unspecified) | inactive: -7.22%
28 | Cc1ccc(S(=O)(=O)N2CCCCC2)cc1C(=O)NCCN1CCOCC1 | inconclusive: 37%
29 | N#CCCn1cc(C=C(C#N)C#N)c(-c2ccc(Cl)cc2)n1 | inactive: 6.59%
30 | C[C@H](CO)N1C[C@H](C)[C@@H](CN(C)Cc2ccc(Cl)c(Cl)c2)OCCCC[C@H](C)Oc2ccc(NC(=O)Nc3cccc4ccccc34)cc2C1=O | active: 33.1%
31 | Cc1ccsc1C(=O)NC1CCCCC1C (stereo unspecified) | inconclusive: 32.1%
32 | CC(Sc1ncnc2sccc12)C(=O)Nc1ccc(S(N)(=O)=O)cc1 (stereo unspecified) | inconclusive: 24.6%
33 | COc1ccc2c(c1)[C@H]1[C@H](CO2)[C@H](c2ccccc2)[C@]2(C)C(=O)Nc3ccc(F)cc3C(=O)N12 | inconclusive: 28.7%
34 | NS(=O)(=O)c1ccc(NC(=O)c2ccc3c(c2)OCO3)cc1 | inconclusive: 29.1%
35 | Cc1ccc2c(c1)C(=O)C(=O)N2Cc1ccc(F)cc1 | inconclusive: 49.8%
36 | Cc1ccc(NC(=S)NN(C)c2cc(C)nc(C)n2)cc1 | inconclusive: 56.3%
37 | CO[C@H]1CN(C)C(=O)c2cc(NC(C)=O)ccc2OC[C@H](C)N(Cc2cncnc2)C[C@H]1C | inactive: 0.689%
38 | C[C@@H]1CN([C@@H](C)CO)C(=O)c2cc(C3=CCCCC3)cnc2O[C@H]1CN(C)CC1CCOCC1 | inconclusive: 84.1%
39 | COc1ccc(S(=O)(=O)Nc2ccc3c(c2)C(=O)N([C@H](C)CO)C[C@H](C)[C@@H](CN(C)C(=O)NC(C)C)OCCCC[C@@H](C)O3)cc1 | inactive: -7.16%
40 | O=C(Nc1cccc(/C=C/c2ccccn2)c1)c1ccc(-n2cncn2)c([N+](=O)[O-])c1 | inconclusive: 54.4%
41 | C[C@H](CO)N1C[C@H](C)[C@@H](CN(C)C(=O)Nc2ccccc2)Oc2c(NC(=O)c3ccncc3)cccc2C1=O | active: 42.1%
42 | C[C@@H]1CN([C@@H](C)CO)C(=O)c2cc(NS(=O)(=O)c3cn(C)cn3)ccc2O[C@@H](C)CCCCO[C@@H]1CN(C)S(=O)(=O)c1cccs1 | inactive: 1.61%
43 | C[C@H]1CN([C@@H](C)CO)C(=O)c2cc(-c3ccc(C(=O)N(C)C)cc3)cnc2O[C@H]1CN(C)C(=O)C1CC1 | inconclusive: 48.9%
44 | C[C@H](CO)N1C[C@H](C)[C@@H](CN(C)S(=O)(=O)c2ccccc2F)Oc2ncc(C#Cc3cccnc3)cc2C1=O | inactive: 2.15% and inactive: -8.87% and inactive: 1.58%
45 | O=C(c1ccc(S(=O)(=O)N2CCCC2)cc1)N(c1ccccc1)C1C=CS(=O)(=O)C1 (stereo unspecified) | inconclusive: 62.4%
46 | CCN(C[C@H]1[C@H](c2ccc(C3=CCCC3)cc2)[C@@H](CO)N1C(C)=O)C(C)=O | inconclusive: 38.1%

Structural class, the entries above containing an aryl thioether with sulfur outside any ring
Row | Compound | CPE inhibition
16 | O=C(NCc1nnc(SCC(=O)N2CCCCC2)o1)c1c(F)cccc1Cl | inconclusive: 21.1%
32 | CC(Sc1ncnc2sccc12)C(=O)Nc1ccc(S(N)(=O)=O)cc1 (stereo unspecified) | inconclusive: 24.6%
